Patent US20200247891A1 (University of California, published 2020)
Where a chain is given by its changes, count along the chain named. These are yes or no findings as the source states them, for the method shown. Some entries that bind do so weakly or less than the wild type. One block for each binder: values may come before it.

Experiments:
[1] = biological target: T1, murine integrin β8 (on primary murine astrocytes) (mouse) (UniProt Q0VBD0); test: flow cytometry on murine astrocytes
T1 sequence (looked up): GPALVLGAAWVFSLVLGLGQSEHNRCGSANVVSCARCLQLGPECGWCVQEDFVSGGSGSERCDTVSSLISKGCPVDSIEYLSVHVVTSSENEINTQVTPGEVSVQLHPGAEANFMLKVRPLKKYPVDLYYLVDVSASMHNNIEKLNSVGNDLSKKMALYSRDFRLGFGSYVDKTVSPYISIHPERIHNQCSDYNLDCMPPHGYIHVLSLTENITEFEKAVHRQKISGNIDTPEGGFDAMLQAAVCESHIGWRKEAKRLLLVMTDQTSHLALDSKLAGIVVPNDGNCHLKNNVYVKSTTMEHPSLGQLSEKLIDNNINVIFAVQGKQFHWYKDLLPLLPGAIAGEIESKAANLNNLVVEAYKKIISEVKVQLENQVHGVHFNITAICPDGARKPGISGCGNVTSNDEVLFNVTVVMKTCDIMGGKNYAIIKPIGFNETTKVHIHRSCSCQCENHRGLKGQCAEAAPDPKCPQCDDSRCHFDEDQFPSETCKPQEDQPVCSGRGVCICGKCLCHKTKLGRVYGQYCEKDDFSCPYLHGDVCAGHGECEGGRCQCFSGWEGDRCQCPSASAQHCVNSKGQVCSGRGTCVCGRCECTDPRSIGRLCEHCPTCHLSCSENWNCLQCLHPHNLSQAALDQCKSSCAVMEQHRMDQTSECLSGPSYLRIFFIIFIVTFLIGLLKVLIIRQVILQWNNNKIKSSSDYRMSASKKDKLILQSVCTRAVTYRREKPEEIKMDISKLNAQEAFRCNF

[2] = biological target: T1, murine integrin β8 (on primary murine astrocytes) (mouse); test: flow cytometry on primary murine astrocytes (FIG. 1)

B1: ADWA-11 (antibody, V domains shown)
VH: EVQLQQSGAELVRPGAFVKLSCKASGFNIKDYYMNWVLQRPEQGLEWIGWIDPDNGNTIYDPKFQGKASITADTSSNTAYLQLSSLTSEDTAVYYCARRLLMDYWGQGTSVTVSS
VL: DIVMTQAAPSVPVTPGESVSISCRSTKSLLHFNGNTYLFWFLQRPGQSPQRLIYYMSNLASGVPDRFSGRGSGTDFTLRISRVEAEDVGVYYCMQSLEYPFTFGTGTKLEIK
binding [1]: binds
binding [2]: binds

B2: ADWA-20 (antibody, V domains shown)
VH: DVQLQESGPGLVKPSQSLSLTCTVTGYSITSDFAWSWIRQFPGNKLEWMGYISYSGSTGYNPSLKSRISITRDTSKNQFFLQLNSVTTEDTATYYCTRRGLYHWGFPYWGQGTLVTVSA
VL: DIVMTQSHKFMSTSVGDRVSITCKASQDVSSAVAWYQQKPGQSPKLLIYWASTRHTGVPDRFTGSGSGTDYTLTVSNVQAEDLALYYCQQHYITPYTFGGGTKLEIK
binding [1]: binds
binding [2]: binds

B4: ADWA-8 (antibody, V domains shown)
VH: QVQLQQPGSELVRPGASVKLSCKASGYTFTSYWMHWVKQRPGQGLEWIGNIYPGSGRTNYDEKFKSKATLTVDTSSSTAYMQLSSLTSEDSAVYYCTRPLQYRYDVYPMDYWGQGTSVTVSS
VL: DIQMTQSPASLSASVGETVTITCRASENIDSYLAWYQQKQGKSPQLLVYAATLLPDGVPSRFSGSGSGTQYSLKINSLQSEDVARYYCQHYYNTPWTFGGGTKLEIK
binding [1]: binds
binding [2]: binds

B5: ADWA-25 (antibody, V domains shown)
VH: EVQLVESGGDLVKPGGSLKLSCAASGFTFSSYGMSWVRQTPDKRLEWVATISGGGSYTYYPDSVKGRFTISRHNAKNTLYLQMSSLKSEDTAMYYCASDPYYYGRRDLAWIAYWGQGTLVTVSA
VL: DIVMTQSQKFMSTSVGDRVSVTCKASQNVGTNVAWYQQKPGQSPKALIYSASYRYSGVPDRFTGSGSGTDFTLTISNVQSEDLAEYFCQQYNSYPYTFGGGTKLEIK
binding [1]: binds
binding [2]: binds

B7: ADWA-15 (antibody, V domains shown)
VH: QVQLQQPGSVLVRPGASVKLSCKASGYTFTSSWMHWAKQRPGQGLEWIGEIHPNSGNSIYNEKFKDKATLTVDTSSSTAYVDLSSLTSEDSAVYYCARWGDFDYWGQGTTLTVSS
VL: DVQMTQTTSSLSASLGDRVTISCRASQDISNYLNWYQQKPDGTVKLLIYYTSRLHSGVPSRFSGSGSGTDFSLTISNLEPEDIATYYCQQYNKVPLTFGGGTKLELK
binding [1]: binds
binding [2]: binds

B8: ADWA-16 (antibody, V domains shown)
VH: QVQLQQSGAELAKPGASMKMSCKASGYTFSSYWIYWVKQRPGQGLEWIGYINPTTGYTEYNQKFRDKATLTADKSSNTAYMQLSSLTSEDSAVYYCATEGGNWEDYWGQGTTLTVSS
VL: B7 VL with V2I, H55Y, F71Y, E81K, Y91F, N92S, K93E, V94L, L96R, L106I
binding [1]: binds
binding [2]: binds

Now from value to binder:

binding [1]: binds
binding [2]: binds
B3: ADWA-10 (antibody, V domains shown)
VH: EVLLQQSGPELVKPGASVKIPCKASGYTFTNYNMDWVKQSHGKSLEWIGDINPNSGGSVYNQKFKGKATLTVDKSSSTAYMELRSLTSEDTAVYYCARWAYYGERFHYFDYWGQGTTLTVSS
VL: QIVLSQSPAILSASPGEKVTMTCRASSSVSYMHWYQQKSGSSPKPWIYATSNLASGVPARFSGSGSGTSYSLTISRVEAEDAATYYCQQWSSNPPTFGGGTKLEIK

binding [1]: binds
binding [2]: binds
B6: ADWA-2 (antibody, V domains shown)
VH: B8 VH
VL: B7 VL with V2I, H55Y, F71Y, E81K, Y91F, N92S, K93E, V94L, L96R, L106I

binding [1]: binds
binding [2]: binds
B9: ADWA-13 (antibody, V domains shown)
VH: B8 VH with M18V, G44V, E59D, R65K, N77S
VL: B7 VL with V2I, H55Y, F71Y, E81K, Y91F, N92S, K93E, V94L, L96R, L106I
